This note sets out measurements from the supplement of paper PMC5407854, “Inhibitor of ppGalNAc-T3-mediated O-glycosylation blocks cancer cell invasiveness and lowers FGF23 levels” (eLife, 2017).

This is one part of the list. Small differences around the control level are noise.

The subject of this test is ppGalNAc-T2 sensor. The test can be described thus: T2 sensor activation Q score (MG/GFP ratio z-score vs DMSO controls) (SD units); higher = more sensor activation (inhibition of ppGalNAc-T2 glycosylation). The conditions noted are these: HEK293 sensor cells; 10 µM; 6 h. On the procedure:
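Cells were treated with compound at 10 uM for 6 h, then MG/GFP ratio was read by flow cytometry (10,000 cells per well, duplicate wells). Q = (R - R_neg)/SD_neg relative to DMSO vehicle controls; the signal rises when the glycosyltransferase is inhibited.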
As to `CCN1CCN(Cc2cccc(Br)c2)CC1`, the “T2 sensor activation Q score” value was 0.105. The value for `COc1ccc(N2CCN(Cc3cccc([N+](=O)[O-])c3)CC2)cc1` was -0.53; that for `CCN1CCN(Cc2cccc(F)c2)CC1` was -1.08; that for `O=C1NC(=O)C(Cc2ccc(F)cc2)C(=O)N1` was -0.985. Take `Brc1ccc(CN2CCNCC2)cc1`: the “T2 sensor activation Q score” value is -0.805. As for `COc1ccc(CN2CCN(c3ccccc3F)CC2)cc1`, the figure is -0.94. For the molecule `COc1cc(Br)c(CN2CCN(c3ccccc3)CC2)cc1OC`, the “T2 sensor activation Q score” value is -0.39. Turning to `COc1ccccc1N1CCN(Cc2ccc(Br)cc2)CC1`, the “T2 sensor activation Q score” value worked out at 0.29.

Regarding `Cc1cccc(N2CCN(Cc3ccc(N(C)C)cc3)CC2)c1C`, the “T2 sensor activation Q score” value stood at 0.655. In the case of `Cc1ccccc1N1CCN(Cc2ccccc2)CC1`, the “T2 sensor activation Q score” value is -0.325. As for `Cc1cccc(N2CCN(Cc3ccccc3[N+](=O)[O-])CC2)c1C`, the figure is 0.2. The value for `CN1CCN(Cc2c(Cl)cccc2Cl)CC1` was -0.655. The value for `Cc1cccc(N2CCN(Cc3ccccc3)CC2)c1C` was 0.06. For the molecule `Fc1cccc(CN2CCN(c3cccc(Cl)c3)CC2)c1`, the “T2 sensor activation Q score” value is 0.235. The value for `O=[N+]([O-])c1ccc(N2CCN(Cc3ccc(O)cc3)CC2)cc1` was 0.28; that for `COc1ccc(CN2CCN(c3ccccc3Cl)CC2)cc1` was -0.805. As for `C=CCOc1ccccc1CN1CCN(c2ccccc2F)CC1`, the figure is 0.785; as for `CN1CCN(Cc2cc3c(cc2[N+](=O)[O-])OCO3)CC1`, 0.695; as for `Cc1cccc(CN2CCN(Cc3ccc4c(c3)OCO4)CC2)c1`, -0.515. On to `CC(=O)c1ccc(N2CCN(Cc3cccc(Cl)c3)CC2)cc1`, for which the “T2 sensor activation Q score” value stood at 1.37. The value for `O=[N+]([O-])c1ccccc1CN1CCN(c2ccc(F)cc2)CC1` was 0.17. The value for `CCN1CCN(Cc2cc(Br)c(OC)cc2OC)CC1` was 0.145.

For `O=[N+]([O-])c1ccc(N2CCN(Cc3c(F)cccc3F)CC2)cc1`, the “T2 sensor activation Q score” value was -0.4.

In the case of `Fc1ccccc1N1CCN(Cc2ccccc2)CC1`, the “T2 sensor activation Q score” value is -0.385. As for `Cc1ccccc1CN1CCN(c2ccccc2C)CC1`, the figure is 0.325; as for `Fc1ccc(N2CCN(Cc3ccc(Cl)cc3)CC2)cc1`, 0.59; as for `CN1CCN(Cc2cccc(Br)c2)CC1`, -0.9.

For the molecule `O=[N+]([O-])c1cc(Cl)ccc1N1CCNCC1`, the “T2 sensor activation Q score” value is -0.48.

`CN1CCN(Cc2ccc([N+](=O)[O-])o2)CC1`: the “T2 sensor activation Q score” value worked out at 0.455. As for `CCOc1ccccc1N1CCN(Cc2ccc(F)cc2F)CC1`, the figure is 0.08; as for `CCOc1ccccc1N1CCN(Cc2ccc(F)c(F)c2)CC1`, -0.065. The value for `COc1ccccc1N1CCN(Cc2ccc(C)cc2C)CC1` was 0.13; that for `COc1ccccc1CN1CCN(c2ccccc2)CC1` was -0.135. For `CCN1CCN(Cc2cc(F)ccc2F)CC1`, the “T2 sensor activation Q score” value was found to be 0.48. The value for `CCOc1ccc(C(CN)CC(=O)O)cc1` (stereo not given) was -1.86; that for `C=CCOc1ccccc1CN1CCN(c2ccccc2)CC1` was 0.405; that for `O=[N+]([O-])c1ccccc1CN1CCN(c2cccc(Cl)c2)CC1` was 1.75. The value for `CCN1CCN(Cc2cccc(OC)c2OC)CC1` was 0.255; that for `Cc1ccccc1CN1CCN(c2ccccc2F)CC1` was 0.22; that for `NCCc1nc(N)n[nH]1` was 0.185.
